# Some of these results come from one statement about several compounds together.
# Test system: PBMC from RhD-alloimmunised donors
# Assay: celELISA of cytokine production (IL-10, TGF-β1) by PBMC from RhD alloimmunised donors
# Assay type: cell-based, human
# Conditions: celELISA 5 days after stimulation, FIG. 10
# Procedure: Cultured T-cells are stimulated with each of the epitopes given in Table 1 and after 5 days the responding cells were transferred to flat-bottomed microtitre plates (96-well Nunc-Immuno Maxisorp) coated with […] per well of monoclonal anti-cytokine capture antibody diluted in 0.05M alkaline carbonate coating buffer pH 9.6. Unbound capture antibody was removed by two washes with HBSS and non-specific binding potential blocked by incubation with 200 μl per well of phosphate buffered saline, pH 7.4 (PBS containing 3% BSA). […]
# After six washes with 0.5% Tween/PBS, 100 μl of 1:100,000 ExtrAvidin-alkaline phosphatase conjugate (Sigma) was then added to each of the wells and incubated at room temperature for 30 minutes. […] The absorbance at 405 nm was then measured using a Multiscan plate reader (Labsystems Basingstoke UK).
# Cytokine secretion was measured by interpolation from a standard curve generated by incubating duplicate wells with doubling dilutions of recombinant human IFN-γ or IL-10 or TGF-β (Pharmingen). The standard curves were modelled by a smoothed cubic spline function applied to the absorbance reading and the cytokine concentrations after a quasilogarithmic transformation, where: quasiloge(z)=loge[z+{square root}[z^2+1]). […]
sequence,measurement,value
SSKYPRSVRRCLPLW (Residues 2- 16 RhD; listed as Homo sapiens) [peptide 1],percentage of donors whose PBMC produced significant IL-10,≥ 20%
